Experimental findings from US20180147257A1 are described below.

The chains behind the UniProt entries cited, without tags or fusion partners. Where a name states a change or a piece, a line headed by the entry shows the natural chain unless it says otherwise. Residues count along the entry.
UniProt P36941, residues 31-227: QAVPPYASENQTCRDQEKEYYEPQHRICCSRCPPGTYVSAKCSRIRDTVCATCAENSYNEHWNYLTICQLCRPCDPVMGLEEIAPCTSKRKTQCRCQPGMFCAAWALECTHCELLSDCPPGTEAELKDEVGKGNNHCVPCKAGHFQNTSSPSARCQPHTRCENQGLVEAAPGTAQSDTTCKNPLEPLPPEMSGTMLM
UniProt O00481: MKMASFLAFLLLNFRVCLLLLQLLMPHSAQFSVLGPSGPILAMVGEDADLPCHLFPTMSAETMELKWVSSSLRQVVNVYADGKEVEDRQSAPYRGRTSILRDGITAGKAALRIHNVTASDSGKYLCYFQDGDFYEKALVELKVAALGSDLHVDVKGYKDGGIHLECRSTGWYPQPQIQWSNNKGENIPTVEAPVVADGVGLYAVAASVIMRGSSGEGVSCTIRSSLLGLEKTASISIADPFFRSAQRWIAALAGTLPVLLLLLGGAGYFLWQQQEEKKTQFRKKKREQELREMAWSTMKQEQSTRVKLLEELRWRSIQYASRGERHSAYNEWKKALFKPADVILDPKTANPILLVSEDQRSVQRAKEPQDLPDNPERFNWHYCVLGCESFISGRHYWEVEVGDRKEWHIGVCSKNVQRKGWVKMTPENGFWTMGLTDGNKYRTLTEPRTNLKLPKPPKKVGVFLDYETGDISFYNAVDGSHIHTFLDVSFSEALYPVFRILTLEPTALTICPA

Experiment [1] deals with LTβR-IgG1 fusion protein (UniProt P36941). Briefly: pull-down with LtβR-IgG1 as bait on Protein A agarose beads, SDS-PAGE.
The target is the same in experiment [2]. Kind of experiment: pull-down on Protein A agarose beads, silver-stained polyacrylamide gel.
The target in experiment [3] is full-length BTN3A1 ectodomain displayed on yeast cells (human) (UniProt O00481). Briefly: FACS staining of yeast displaying the BTN3A1 ectodomain with purified LTβR-IgG1.
The target is the same in experiment [4]. Kind of experiment: FACS staining of yeast displaying the full-length BTN3A1 ectodomain with purified LTβR-IgG1 at different concentrations.

Results are given in words; binding and its absence hold for the method and conditions named. For some of these results: Binding seen in cells or lysates may run through a third protein. Some entries that bind do so weakly or less than the wild type.

“recombinant BTN3A1 monomer (from UniProt O00481 30-246) (receptor)”: the binding entry with LTβR-IgG1 fusion protein [1] and in the experiment with LTβR-IgG1 fusion protein [2] was “binds” each time.

Take “LTβR-IgG1 fusion protein (from UniProt P36941 31-227) (Fc fusion)”: the binding entry in experiment [3] and in experiment [4] was “binds” each time.
